PubChem BioAssay AID652259, Drosophila RNAi Screening Center – 2013
The deposit covers about 22,000 reagents; shown is a random part of those that have a named target and a result. Over the whole deposit, 233 (1.1%) are marked active. 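Light values are raw, unnormalised plate reads; the ratio scores behind the reporter calls were not deposited.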 A number with no mark means an inactive call. A plus sign joins genes that one reagent is predicted to hit. The record does not give: the amount of reagent, the time to read-out, the dose of the treatment.

Assay: 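Genome-wide hunt for genes that control Wingless pathway activity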 (primary screen)
Cell system: Drosophila clone 8 imaginal disc epithelial cells
Knock-down reagent: long dsRNA against Drosophila genes
Conditions: pathway stimulated by co-transfected Wingless expression plasmid
Measured: 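Firefly luciferase from a tcf-site Wingless reporter, measured alongside co-transfected Renilla luciferase that tracks transfection; pathway stimulated by a Wingless plasmid; the firefly-to-Renilla ratio is not deposited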
Direction: firefly reporter light: higher = more Wg reporter light, before normalisation; Renilla control light: higher = more transfected or surviving cells
Rule for the call: 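a knock-down is a candidate when at least two out of four statistical tests show it departing from its plate mean; one test alone signals a weak candidate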
Meaning of the calls: active = candidate regulator (raises or lowers reporter); inactive = not a candidate

Target gene,amplicon,"reporter change call, replicate 1","firefly reporter light, replicate 1","firefly reporter light, replicate 2","Renilla control light, replicate 1","Renilla control light, replicate 2"
CG12239,DRSC17832,,3099,7659,1302,2393
CG1827,DRSC06719,,5994,,1856,
Idgf6,DRSC07360,,15020,,4171,
Trmt61,DRSC14888,,17156,,14707,
sac,DRSC12237,,10156,,2832,
Gsc,DRSC00755,,2422,8277,892,2215
sau,DRSC00694,,11633,,2569,
obst-J,DRSC10821,,17093,,4928,
CG14456,DRSC11713,,8217,,3607,
PH4alphaNE3,DRSC16541,,3338,7968,1235,2653
CG42258,DRSC19741,,19376,,9910,
CG42258,DRSC19783,,22627,,7888,
Rap1,DRSC08686,,11611,,3780,
PIG-H,DRSC14856,,22163,,6516,
LManVI,DRSC03224,,2560,4003,997,2000
mRpL43,DRSC04508,,4227,9896,1176,4024
mRpL43,DRSC22571,,5.49e5,5.46e5,2.39e5,96308
ovm + CG31975,DRSC22146,,4.79e5,5.51e5,1.91e5,2.12e5
exd,DRSC20330,,19224,,9474,
Tpc2,DRSC04322,,2685,5190,412,1795
MED1,DRSC11808,,7834,,3607,
Hrd3,DRSC14156,,2756,5512,1222,1549
RpL36A,DRSC03055,Wg reporter activity raised,11366,3896,2400,932
CG33476,DRSC22888,,6.15e5,5.88e5,2.31e5,1.74e5
CG14744,DRSC06480,,3536,6989,1091,2644
dind,DRSC16294,,1962,5029,1021,992
Syx5,DRSC03432,,11264,,2550,
CG9451,DRSC11074,,9083,,3296,
CG9109,DRSC03139,,8369,,3907,
Tmx3,DRSC10471,,4901,,2288,
S-Lap4,DRSC10957,,6589,,3488,
Dbx,DRSC08270,,8468,,2125,
Dbx,DRSC08271,,5856,,2643,
Dbx,DRSC08394,,6296,,2491,
Alp11,DRSC20080,,14138,,6896,
CG14598,DRSC12541,,12080,,3453,
Stam,DRSC03444,,6816,,2763,
CG2736,DRSC04314,,10617,,4098,
CG9993,DRSC04599,,2503,5546,666,2029
CG42634 + CG42635,DRSC02450,,3077,9366,1003,4067
CG8188,DRSC20090,,17096,5.17e5,9146,3.14e5
Rabex-5,DRSC08628,,16619,,4305,
Alg7,DRSC02833,,7456,,2887,
Alg7,DRSC02834,,2179,8027,791,2438
Zip99C,DRSC16320,,3650,7347,1335,2409
cal1,DRSC15725,,3845,7127,1451,2262
Lectin-galC1,DRSC03362,,2669,5987,896,2192
BicC,DRSC02005,,2233,5818,747,3008
NLaz,DRSC21521,,8.16e5,8.40e5,3.77e5,3.58e5

Ordered by “firefly reporter light, replicate 1” (lowest first): some entries from above.
Target gene,amplicon,"reporter change call, replicate 1","firefly reporter light, replicate 1","firefly reporter light, replicate 2","Renilla control light, replicate 1","Renilla control light, replicate 2"
Gsc,DRSC00755,,2422,8277,892,2215
sac,DRSC12237,,10156,,2832,
Trmt61,DRSC14888,,17156,,14707,
